Consider one substance from PMC8199199.

By UniProt entry, the sequences of proteins in these tests, tags left out.
UniProt P03372: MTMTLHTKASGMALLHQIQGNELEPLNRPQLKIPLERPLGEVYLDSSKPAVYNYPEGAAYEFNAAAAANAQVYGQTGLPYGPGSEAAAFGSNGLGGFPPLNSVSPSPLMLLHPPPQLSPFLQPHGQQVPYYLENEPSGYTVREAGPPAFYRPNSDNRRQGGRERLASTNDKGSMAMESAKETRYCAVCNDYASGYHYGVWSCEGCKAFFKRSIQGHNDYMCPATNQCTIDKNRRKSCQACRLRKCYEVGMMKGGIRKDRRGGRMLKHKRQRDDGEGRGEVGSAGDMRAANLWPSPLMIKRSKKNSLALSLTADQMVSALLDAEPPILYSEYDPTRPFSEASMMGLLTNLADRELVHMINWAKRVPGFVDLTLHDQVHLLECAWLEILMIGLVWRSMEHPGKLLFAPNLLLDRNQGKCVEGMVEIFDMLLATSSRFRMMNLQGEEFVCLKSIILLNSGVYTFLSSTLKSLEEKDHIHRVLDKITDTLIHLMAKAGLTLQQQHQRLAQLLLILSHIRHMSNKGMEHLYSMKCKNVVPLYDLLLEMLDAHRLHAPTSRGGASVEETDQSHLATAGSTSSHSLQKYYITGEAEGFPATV
UniProt O75376: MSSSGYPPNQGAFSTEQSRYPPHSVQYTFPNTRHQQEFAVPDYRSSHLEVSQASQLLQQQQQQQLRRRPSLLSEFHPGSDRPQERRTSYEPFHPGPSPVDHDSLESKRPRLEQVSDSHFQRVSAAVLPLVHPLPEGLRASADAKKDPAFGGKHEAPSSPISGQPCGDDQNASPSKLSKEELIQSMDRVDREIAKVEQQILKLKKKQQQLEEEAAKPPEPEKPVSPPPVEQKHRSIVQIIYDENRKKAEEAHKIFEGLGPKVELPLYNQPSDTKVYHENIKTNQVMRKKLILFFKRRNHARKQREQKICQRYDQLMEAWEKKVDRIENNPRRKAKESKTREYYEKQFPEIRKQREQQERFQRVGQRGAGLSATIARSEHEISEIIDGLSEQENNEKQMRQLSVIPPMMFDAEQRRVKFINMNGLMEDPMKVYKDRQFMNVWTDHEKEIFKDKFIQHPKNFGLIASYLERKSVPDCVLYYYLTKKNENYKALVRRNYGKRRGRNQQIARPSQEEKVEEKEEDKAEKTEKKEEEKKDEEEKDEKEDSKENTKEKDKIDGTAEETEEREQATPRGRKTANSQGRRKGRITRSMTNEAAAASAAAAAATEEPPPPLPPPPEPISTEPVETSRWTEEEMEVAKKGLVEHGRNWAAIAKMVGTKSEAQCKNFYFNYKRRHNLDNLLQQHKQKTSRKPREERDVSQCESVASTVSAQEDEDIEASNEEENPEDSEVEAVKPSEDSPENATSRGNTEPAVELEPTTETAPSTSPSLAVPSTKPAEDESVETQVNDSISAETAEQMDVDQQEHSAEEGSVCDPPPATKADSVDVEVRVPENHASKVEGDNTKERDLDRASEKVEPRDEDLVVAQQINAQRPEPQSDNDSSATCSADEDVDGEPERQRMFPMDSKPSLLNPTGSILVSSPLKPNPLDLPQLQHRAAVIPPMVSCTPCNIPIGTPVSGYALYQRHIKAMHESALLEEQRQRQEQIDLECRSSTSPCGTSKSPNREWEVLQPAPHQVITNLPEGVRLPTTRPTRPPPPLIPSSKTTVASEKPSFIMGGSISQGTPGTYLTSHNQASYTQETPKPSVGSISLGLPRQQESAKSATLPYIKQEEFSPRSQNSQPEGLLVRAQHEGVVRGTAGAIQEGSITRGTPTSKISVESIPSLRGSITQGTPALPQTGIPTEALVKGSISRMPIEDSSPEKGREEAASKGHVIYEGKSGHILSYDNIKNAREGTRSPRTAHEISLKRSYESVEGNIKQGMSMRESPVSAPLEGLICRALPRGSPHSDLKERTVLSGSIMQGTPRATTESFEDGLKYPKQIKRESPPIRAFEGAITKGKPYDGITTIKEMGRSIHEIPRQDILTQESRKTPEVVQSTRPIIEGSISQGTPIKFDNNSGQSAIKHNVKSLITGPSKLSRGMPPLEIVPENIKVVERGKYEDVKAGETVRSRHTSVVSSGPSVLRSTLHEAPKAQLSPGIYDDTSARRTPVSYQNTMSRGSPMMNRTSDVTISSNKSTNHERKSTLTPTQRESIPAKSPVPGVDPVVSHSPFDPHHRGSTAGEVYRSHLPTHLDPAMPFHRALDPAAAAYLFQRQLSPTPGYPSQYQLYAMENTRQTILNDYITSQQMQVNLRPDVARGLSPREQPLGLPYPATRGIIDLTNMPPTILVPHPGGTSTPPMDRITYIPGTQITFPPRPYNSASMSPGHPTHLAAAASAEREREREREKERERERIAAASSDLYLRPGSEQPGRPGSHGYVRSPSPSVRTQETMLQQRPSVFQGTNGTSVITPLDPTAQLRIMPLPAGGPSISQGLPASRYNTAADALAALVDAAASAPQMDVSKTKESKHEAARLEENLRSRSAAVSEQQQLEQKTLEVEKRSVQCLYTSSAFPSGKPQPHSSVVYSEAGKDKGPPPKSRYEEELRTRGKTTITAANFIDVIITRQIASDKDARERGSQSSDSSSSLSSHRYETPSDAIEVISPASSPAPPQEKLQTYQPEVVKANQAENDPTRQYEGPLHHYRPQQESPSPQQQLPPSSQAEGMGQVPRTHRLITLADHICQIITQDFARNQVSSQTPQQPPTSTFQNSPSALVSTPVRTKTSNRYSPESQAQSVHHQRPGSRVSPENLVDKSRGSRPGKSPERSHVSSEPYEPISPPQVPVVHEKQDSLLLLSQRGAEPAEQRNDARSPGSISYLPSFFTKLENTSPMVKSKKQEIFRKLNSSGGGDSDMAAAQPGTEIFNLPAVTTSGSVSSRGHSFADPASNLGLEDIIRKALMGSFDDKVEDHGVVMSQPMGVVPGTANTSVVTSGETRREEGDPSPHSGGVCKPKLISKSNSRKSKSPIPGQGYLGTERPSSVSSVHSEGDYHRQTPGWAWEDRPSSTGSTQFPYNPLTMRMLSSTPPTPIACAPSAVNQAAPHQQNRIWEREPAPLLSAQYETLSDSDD

For assay [1], the target named is estrogen receptor α (human (endogenous in MCF7)) (UniProt P03372). Description: co-IP; immunoprecipitation with an anti-ERα antibody from MCF7 cell lysates, cells treated with TNFα; immunoblot with the indicated antibodies. For orientation: A western blot detects proteins with antibodies after separation by electrophoresis.
The target is the same in assay [2]. Description: co-IP; immunoprecipitation with an anti-ERα antibody from MCF7 cell lysates, cells without TNFα treatment; immunoblot with the indicated antibodies.

These are yes or no findings as the source states them, for the method shown. In cells and extracts the contact can be indirect. Some entries that bind do so weakly or less than the wild type.

For “nuclear receptor corepressor 1 (from UniProt O75376 1-2440)”, the binding entry in assay [1] is listed as “no binding (condition: cells treated with TNFα)”; in assay [2], “binds”.
